Paper PMC10940162

Protein sequences, listed by entry. Tags and fused reporters are not part of them.
UniProt Q96RT7: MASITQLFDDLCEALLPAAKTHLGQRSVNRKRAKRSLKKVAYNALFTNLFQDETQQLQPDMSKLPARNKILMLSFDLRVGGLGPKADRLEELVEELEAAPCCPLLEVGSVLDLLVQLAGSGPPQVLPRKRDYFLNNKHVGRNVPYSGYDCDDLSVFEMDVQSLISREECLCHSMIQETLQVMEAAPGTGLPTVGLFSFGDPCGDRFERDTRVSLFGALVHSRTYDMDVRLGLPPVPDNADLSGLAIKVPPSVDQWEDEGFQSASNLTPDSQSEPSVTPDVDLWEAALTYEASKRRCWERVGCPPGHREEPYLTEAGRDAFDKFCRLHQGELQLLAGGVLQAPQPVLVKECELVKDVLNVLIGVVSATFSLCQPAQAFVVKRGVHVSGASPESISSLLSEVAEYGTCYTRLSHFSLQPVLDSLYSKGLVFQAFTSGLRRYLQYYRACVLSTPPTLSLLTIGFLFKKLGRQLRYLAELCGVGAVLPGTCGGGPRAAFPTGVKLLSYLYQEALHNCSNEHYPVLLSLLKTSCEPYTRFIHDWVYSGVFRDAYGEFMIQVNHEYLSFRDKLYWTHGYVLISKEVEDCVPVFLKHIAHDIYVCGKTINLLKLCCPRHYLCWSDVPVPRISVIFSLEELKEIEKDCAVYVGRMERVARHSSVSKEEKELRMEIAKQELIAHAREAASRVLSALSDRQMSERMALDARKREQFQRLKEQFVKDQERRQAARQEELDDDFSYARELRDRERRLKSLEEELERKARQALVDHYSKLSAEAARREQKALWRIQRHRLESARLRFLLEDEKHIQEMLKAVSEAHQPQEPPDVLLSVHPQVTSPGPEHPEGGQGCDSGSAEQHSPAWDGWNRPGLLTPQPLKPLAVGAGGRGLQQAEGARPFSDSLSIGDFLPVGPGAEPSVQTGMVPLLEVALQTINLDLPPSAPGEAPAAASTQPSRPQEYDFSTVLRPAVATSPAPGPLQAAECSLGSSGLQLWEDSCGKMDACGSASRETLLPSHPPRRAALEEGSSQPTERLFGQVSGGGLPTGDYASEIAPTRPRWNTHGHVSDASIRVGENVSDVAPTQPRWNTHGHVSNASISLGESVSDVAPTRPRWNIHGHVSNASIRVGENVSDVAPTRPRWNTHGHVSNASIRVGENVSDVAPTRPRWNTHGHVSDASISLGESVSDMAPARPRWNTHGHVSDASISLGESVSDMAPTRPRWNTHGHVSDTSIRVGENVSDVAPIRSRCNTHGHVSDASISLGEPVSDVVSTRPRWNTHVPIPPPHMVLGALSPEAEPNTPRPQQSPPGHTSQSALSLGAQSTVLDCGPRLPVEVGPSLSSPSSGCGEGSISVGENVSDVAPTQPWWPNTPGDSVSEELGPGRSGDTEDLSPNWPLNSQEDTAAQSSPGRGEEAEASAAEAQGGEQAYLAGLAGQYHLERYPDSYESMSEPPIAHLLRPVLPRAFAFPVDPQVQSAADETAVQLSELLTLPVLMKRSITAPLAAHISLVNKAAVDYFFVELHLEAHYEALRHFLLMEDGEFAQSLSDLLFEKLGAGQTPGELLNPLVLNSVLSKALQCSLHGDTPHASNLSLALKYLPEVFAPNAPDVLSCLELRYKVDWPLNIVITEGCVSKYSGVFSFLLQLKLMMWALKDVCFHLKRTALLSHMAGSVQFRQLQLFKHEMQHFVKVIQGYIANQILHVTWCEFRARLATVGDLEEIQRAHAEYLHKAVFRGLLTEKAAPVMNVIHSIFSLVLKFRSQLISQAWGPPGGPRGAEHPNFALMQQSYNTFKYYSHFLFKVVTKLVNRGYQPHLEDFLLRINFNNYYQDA
UniProt Q9UGJ1: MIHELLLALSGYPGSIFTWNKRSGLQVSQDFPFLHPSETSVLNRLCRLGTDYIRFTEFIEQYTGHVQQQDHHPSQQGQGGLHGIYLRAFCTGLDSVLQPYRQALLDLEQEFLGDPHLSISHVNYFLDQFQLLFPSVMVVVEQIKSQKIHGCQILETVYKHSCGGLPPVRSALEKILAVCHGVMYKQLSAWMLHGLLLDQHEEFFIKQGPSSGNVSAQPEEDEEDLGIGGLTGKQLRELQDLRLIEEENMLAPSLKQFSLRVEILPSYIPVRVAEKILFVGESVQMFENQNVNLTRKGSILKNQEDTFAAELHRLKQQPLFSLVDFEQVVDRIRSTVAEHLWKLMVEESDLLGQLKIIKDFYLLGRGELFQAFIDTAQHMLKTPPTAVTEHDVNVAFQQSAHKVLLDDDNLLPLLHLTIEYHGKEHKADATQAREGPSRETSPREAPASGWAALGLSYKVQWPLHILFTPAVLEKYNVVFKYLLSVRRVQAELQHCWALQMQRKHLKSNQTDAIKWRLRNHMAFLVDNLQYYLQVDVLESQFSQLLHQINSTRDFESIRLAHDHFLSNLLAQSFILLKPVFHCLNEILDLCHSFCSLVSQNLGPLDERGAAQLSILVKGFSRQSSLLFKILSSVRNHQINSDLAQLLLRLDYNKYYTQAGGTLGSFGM
UniProt Q96RT8: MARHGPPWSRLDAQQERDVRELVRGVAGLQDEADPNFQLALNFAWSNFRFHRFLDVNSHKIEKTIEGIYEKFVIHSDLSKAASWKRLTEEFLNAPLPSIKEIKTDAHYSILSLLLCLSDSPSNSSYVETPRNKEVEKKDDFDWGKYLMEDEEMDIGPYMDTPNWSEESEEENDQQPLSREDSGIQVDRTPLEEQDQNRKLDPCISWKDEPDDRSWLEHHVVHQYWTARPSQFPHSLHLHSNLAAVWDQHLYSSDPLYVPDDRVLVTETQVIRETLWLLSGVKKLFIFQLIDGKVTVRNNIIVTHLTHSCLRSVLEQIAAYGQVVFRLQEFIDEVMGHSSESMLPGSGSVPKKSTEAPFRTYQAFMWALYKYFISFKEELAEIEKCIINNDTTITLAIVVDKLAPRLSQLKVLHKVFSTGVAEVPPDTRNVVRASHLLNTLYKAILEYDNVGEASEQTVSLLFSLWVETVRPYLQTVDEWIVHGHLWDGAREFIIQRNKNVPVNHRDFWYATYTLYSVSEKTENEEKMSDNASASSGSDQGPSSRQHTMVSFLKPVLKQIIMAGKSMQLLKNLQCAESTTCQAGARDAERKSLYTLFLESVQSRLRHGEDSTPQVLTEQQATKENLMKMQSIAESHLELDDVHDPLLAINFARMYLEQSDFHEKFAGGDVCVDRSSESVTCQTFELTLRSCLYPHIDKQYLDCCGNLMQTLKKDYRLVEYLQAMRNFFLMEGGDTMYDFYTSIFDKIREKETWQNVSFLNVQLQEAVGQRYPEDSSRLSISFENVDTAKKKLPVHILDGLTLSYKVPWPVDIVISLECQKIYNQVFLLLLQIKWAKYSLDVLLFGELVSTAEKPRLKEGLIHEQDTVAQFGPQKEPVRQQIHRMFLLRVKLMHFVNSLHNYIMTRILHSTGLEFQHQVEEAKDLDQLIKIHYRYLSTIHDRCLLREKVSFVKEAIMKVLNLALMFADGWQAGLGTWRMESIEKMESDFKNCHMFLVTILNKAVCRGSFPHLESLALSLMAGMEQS

Target: GCP6–GFP–SII (human (endogenous in HEK293T)) (UniProt Q96RT7)
Test: affinity purification with mass spectrometry; Strep-Tactin purification of endogenously tagged GCP6–GFP–SII from HEK293T knockin cell lysate (elution with 300 mM NaCl); MS with iBAQ

Question: GCP4 (from UniProt Q9UGJ1 1-667) was tested. Which binding did it give?
Answer: binds

Question: How did the binding turn out when GCP5 (from UniProt Q96RT8 1-1024) was run?
Answer: binds

Results are given in words; binding and its absence hold for the method and conditions named. Binding seen in cells or lysates may run through a third protein. These calls come from enrichment with a bait or labelling near it, and not all partners need be listed.
